These are yes or no findings as the source states them, for the method shown. Binding seen in cells or lysates may run through a third protein. Some entries that bind do so weakly or less than the wild type.
Biological target: p53 (human (endogenous in HCT116)) (UniProt P04637)
Experiment: co-IP; reciprocal IP: HCT116 nuclear extracts incubated with IgG or DO-1 p53 antibody; immunoblot for Matrin 3

binding: binds
B1: Matrin 3 (protein, UniProt P43243 1-847)
chain: MSKSFQQSSLSRDSQGHGRDLSAAGIGLLAAATQSLSMPASLGRMNQGTARLASLMNLGMSSSLNQQGAHSALSSASTSSHNLQSIFNIGSRGPLPLSSQHRGDADQASNILASFGLSARDLDELSRYPEDKITPENLPQILLQLKRRRTEEGPTLSYGRDGRSATREPPYRVPRDDWEEKRHFRRDSFDDRGPSLNPVLDYDHGSRSQESGYYDRMDYEDDRLRDGERCRDDSFFGETSHNYHKFDSEYERMGRGPGPLQERSLFEKKRGAPPSSNIEDFHGLLPKGYPHLCSICDLPVHSNKEWSQHINGASHSRRCQLLLEIYPEWNPDNDTGHTMGDPFMLQQSTNPAPGILGPPPPSFHLGGPAVGPRGNLGAGNGNLQGPRHMQKGRVETSRVVHIMDFQRGKNLRYQLLQLVEPFGVISNHLILNKINEAFIEMATTEDAQAAVDYYTTTPALVFGKPVRVHLSQKYKRIKKPEGKPDQKFDQKQELGRVIHLSNLPHSGYSDSAVLKLAEPYGKIKNYILMRMKSQAFIEMETREDAMAMVDHCLKKALWFQGRCVKVDLSEKYKKLVLRIPNRGIDLLKKDKSRKRSYSPDGKESPSDKKSKTDGSQKTESSTEGKEQEEKSGEDGEKDTKDDQTEQEPNMLLESEDELLVDEEEAAALLESGSSVGDETDLANLGDVASDGKKEPSDKAVKKDGSASAAAKKKLKKVDKIEELDQENEAALENGIKNEENTEPGAESSENADDPNKDTSENADGQSDENKDDYTIPDEYRIGPYQPNVPVGIDYVIPKTGFYCKLCSLFYTNEEVAKNTHCSSLPHYQKLKKFLNKLAEERRQKKET

From PMC5470874
